Experimental data reported in patent US20110076705A1.
No constants are given. Whether binding was seen depends on the method and setting. Binding calls can cover weak binding; strength is not graded here.

Key:
[1] = target: Bos Taurus Pregnancy-associated glycoprotein 21 (Bos taurus); test: 2D9 immuno-affinity chromatography of day 55 tissue extracts, LC-MS-MS of bands 3, 5 & 7
[2] = target: Bos Taurus Pregnancy-associated glycoprotein 4 (Bos taurus); test: 2D9 immuno-affinity chromatography, LC-MS-MS
[3] = target: Bos Taurus Pregnancy-associated glycoprotein 6 (Bos taurus); test: 2D9 immuno-affinity chromatography, LC-MS-MS
[4] = target: Bos Taurus Pregnancy-associated glycoprotein 9 (Bos taurus); test: 2D9 immuno-affinity chromatography, LC-MS-MS
[5] = target: Bos Taurus Pregnancy-associated glycoprotein 20 (Bos taurus); test: 2D9 immuno-affinity chromatography, LC-MS-MS
[6] = target: Bos Taurus Pregnancy-associated glycoprotein 21 (Bos taurus); test: 2D9 immuno-affinity chromatography, LC-MS-MS
[7] = target: Bos Taurus Pregnancy-associated glycoprotein 17 (Bos taurus); test: 2D9 immunoaffinity column on day 55 and day 215 placental tissues, LC/MS/MS
[8] = target: Bos Taurus Pregnancy-associated glycoprotein 19 (Bos taurus); test: as above
[9] = target: Bos Taurus Pregnancy-associated glycoprotein 6 (Bos taurus); test: immunoprecipitation and 2D9 immuno-affinity chromatography, LC-MS-MS
[10] = target: Bos Taurus Pregnancy-associated glycoprotein 17 (Bos taurus); test: 2D9 immunoaffinity column, day 215 caruncle/cotyledon combined, LC/MS/MS
[11] = target: Bos Taurus Pregnancy-associated glycoprotein 4 (Bos taurus); test: as above
[12] = target: Bos Taurus Pregnancy-associated glycoprotein 6 (Bos taurus); test: as above
[13] = target: Bos Taurus Pregnancy-associated glycoprotein 9 (Bos taurus); test: as above
[14] = target: Bos Taurus Pregnancy-associated glycoprotein 21 (Bos taurus); test: as above
[15] = target: Bos Taurus Pregnancy-associated glycoprotein 4 (Bos taurus); test: LC/MS/MS peptide sequencing of 2D9-purified PAGs from day 55 placental tissues
[16] = target: Bos Taurus Pregnancy-associated glycoprotein 6 (Bos taurus); test: as above
[17] = target: Bos Taurus Pregnancy-associated glycoprotein 9 (Bos taurus); test: as above
[18] = target: Bos Taurus Pregnancy-associated glycoprotein 20 (Bos taurus); test: as above
[19] = target: Bos Taurus Pregnancy-associated glycoprotein 21 (Bos taurus); test: as above
[20] = target: Bos Taurus Pregnancy-associated glycoprotein 17 (Bos taurus); test: 2D9 immunoaffinity column, day 215 cotyledon, LC/MS/MS
[21] = target: Bos Taurus Pregnancy-associated glycoprotein 4 (Bos taurus); test: as above
[22] = target: Bos Taurus Pregnancy-associated glycoprotein 6 (Bos taurus); test: as above
[23] = target: Bos Taurus Pregnancy-associated glycoprotein 9 (Bos taurus); test: as above
[24] = target: Bos Taurus Pregnancy-associated glycoprotein 19 (Bos taurus); test: as above
[25] = target: Bos Taurus Pregnancy-associated glycoprotein 21 (Bos taurus); test: as above
[26] = target: Bos Taurus Pregnancy-associated glycoprotein 17 (Bos taurus); test: 2D9 immunoaffinity column, day 55 cotyledon, LC/MS/MS
[27] = target: Bos Taurus Pregnancy-associated glycoprotein 4 (Bos taurus); test: as above
[28] = target: Bos Taurus Pregnancy-associated glycoprotein 6 (Bos taurus); test: as above
[29] = target: Bos Taurus Pregnancy-associated glycoprotein 9 (Bos taurus); test: as above
[30] = target: Bos Taurus Pregnancy-associated glycoprotein 19 (Bos taurus); test: as above
[31] = target: Bos Taurus Pregnancy-associated glycoprotein 21 (Bos taurus); test: as above
[32] = target: Bos Taurus Pregnancy-associated glycoprotein 17 (Bos taurus); test: 2D9 immunoaffinity column, LC/MS/MS of gel bands
[33] = target: Bos Taurus Pregnancy-associated glycoprotein 19 (Bos taurus); test: 2D9 immunoaffinity column, LC/MS/MS of gel bands
[34] = target: Bos Taurus Pregnancy-associated glycoprotein 17 (Bos taurus); test: 2D9 immunoaffinity column, day 55 caruncle, LC/MS/MS
[35] = target: Bos Taurus Pregnancy-associated glycoprotein 4 (Bos taurus); test: as above
[36] = target: Bos Taurus Pregnancy-associated glycoprotein 6 (Bos taurus); test: as above
[37] = target: Bos Taurus Pregnancy-associated glycoprotein 9 (Bos taurus); test: as above
[38] = target: Bos Taurus Pregnancy-associated glycoprotein 21 (Bos taurus); test: as above
[39] = target: Bos Taurus Pregnancy-associated glycoprotein 6 (Bos taurus); test: 2D9 immuno-affinity chromatography of day 55 tissue extracts, LC-MS-MS of bands 1, 2, 4 & 5
[40] = target: Bos Taurus Pregnancy-associated glycoprotein 17 (Bos taurus); test: 2D9 immunoaffinity column, day 55 caruncle/cotyledon combined, LC/MS/MS
[41] = target: Bos Taurus Pregnancy-associated glycoprotein 4 (Bos taurus); test: as above
[42] = target: Bos Taurus Pregnancy-associated glycoprotein 6 (Bos taurus); test: as above
[43] = target: Bos Taurus Pregnancy-associated glycoprotein 9 (Bos taurus); test: as above
[44] = target: Bos Taurus Pregnancy-associated glycoprotein 19 (Bos taurus); test: as above
[45] = target: Bos Taurus Pregnancy-associated glycoprotein 9 (Bos taurus); test: 2D9 immuno-affinity chromatography of day 55 tissue extracts, LC-MS-MS of bands 2 & 5
[46] = target: Bos Taurus Pregnancy-associated glycoprotein 6 (Bos taurus); test: immunoprecipitation with 2D9-coupled magnetic beads, SDS-PAGE, LC-MS-MS
[47] = target: Bos Taurus Pregnancy-associated glycoprotein 20 (Bos taurus); test: 2D9 immuno-affinity chromatography of day 55 tissue extracts, LC-MS-MS of bands 1 & 4
[48] = target: Bos Taurus Pregnancy-associated glycoprotein 17 (Bos taurus); test: 2D9 immunoaffinity column, day 215 caruncle, LC/MS/MS
[49] = target: Bos Taurus Pregnancy-associated glycoprotein 4 (Bos taurus); test: as above
[50] = target: Bos Taurus Pregnancy-associated glycoprotein 6 (Bos taurus); test: as above
[51] = target: Bos Taurus Pregnancy-associated glycoprotein 9 (Bos taurus); test: as above
[52] = target: Bos Taurus Pregnancy-associated glycoprotein 19 (Bos taurus); test: as above
[53] = target: Bos Taurus Pregnancy-associated glycoprotein 21 (Bos taurus); test: as above
[54] = target: Bos Taurus Pregnancy-associated glycoprotein 4 (Bos taurus); test: 2D9 immuno-affinity chromatography of day 55 tissue extracts, LC-MS-MS of bands 3, 5, 6 & 7

binding [1]: binds
binding [2]: binds
binding [3]: binds
binding [4]: binds
binding [5]: binds
binding [6]: binds
binding [7]: binds
binding [8]: binds
binding [9]: binds
binding [10]: binds
binding [11]: binds
binding [12]: binds
binding [13]: binds
binding [14]: binds
binding [15]: binds
binding [16]: binds
binding [17]: binds
binding [18]: binds
binding [19]: binds
binding [20]: binds
binding [21]: binds
binding [22]: binds
binding [23]: binds
binding [24]: binds
binding [25]: binds
binding [26]: binds
binding [27]: binds
binding [28]: binds
binding [29]: binds
binding [30]: binds
binding [31]: binds
binding [32]: binds
binding [33]: binds
binding [34]: binds
binding [35]: binds
binding [36]: binds
binding [37]: binds
binding [38]: binds
binding [39]: binds
binding [40]: binds
binding [41]: binds
binding [42]: binds
binding [43]: binds
binding [44]: binds
binding [45]: binds
binding [46]: binds
binding [47]: binds
binding [48]: binds
binding [49]: binds
binding [50]: binds
binding [51]: binds
binding [52]: binds
binding [53]: binds
binding [54]: binds
B1: monoclonal antibody 2D9 (antibody, mouse IgG1, kappa, V domains shown)
VH: QVQLQQSGAELMKPGASVKISCKATGYIFSNYWMEWVKQRPGHGLEWIGEILPGSDITNYNEKFKDKATFTADSSSNTAYMQLSSLTSEDSAVYYCARAGSGYYGVYYYAMDYWGQGTSVTVSS
VL: DVLMTQTPLSLPVSLGDQASISCRSRQSIVHSNGNTYLEWFLQKPGQSPKLLIYKVSNRFSGVPDRFSGSGSGTDFTLKISRVEAEDLGVYYCFQGSHVPLTFGAGTKLELKR
